# Results reported in the supplement of paper PMC8728848.
# Some of the results follow.
# Legend:
# Experiment in all cases: glycan array binding signal (z-score within array); higher = stronger binding
# Details in all cases: glycan notation: IUPAC condensed, linker removed
# [1] = target: Glc(b1-6)Glc
# In short: (§1)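 Glycan array binding is given as a within-array Z-score, which can be read as non-binding when negative. The arrays, 3228 of them, came from the Consortium for Functional Glycomics database and were retained only where the protein sequence was available. Z-scores were averaged across arrays of the same protein sequence at different concentrations or buffers and across linkers.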
# [2] = target: GlcA(b1-3)Gal
# In short: as §1
# [3] = target: GlcA(b1-3)GlcNAc
# In short: as §1
# [4] = target: GlcA(b1-6)Gal
# In short: as §1
# [5] = target: GlcA3S(b1-3)Gal(b1-4)GlcNAc(b1-2)Man
# In short: as §1
# [6] = target: GlcA3S(b1-3)Gal(b1-4)GlcNAc(b1-3)Gal(b1-4)Glc
# In short: as §1
# [7] = target: GlcNAc(a1-3)Gal(b1-4)GlcNAc
# In short: as §1
# [8] = target: GlcNAc(a1-4)Gal(b1-3)GlcNAc
# In short: as §1
# [9] = target: GlcNAc(a1-4)Gal(b1-4)GalNAc
# In short: as §1
# [10] = target: GlcNAc(a1-4)Gal(b1-4)GlcNAc
# In short: as §1
# [11] = target: GlcNAc(a1-4)Gal(b1-4)GlcNAc(b1-3)Gal(b1-4)Glc
# In short: as §1
# [12] = target: GlcNAc(a1-4)Gal(b1-4)GlcNAc(b1-3)Gal(b1-4)GlcNAc
# In short: as §1
# [13] = target: GlcNAc(a1-4)Gal(b1-4)GlcNAc(b1-3)Gal(b1-4)GlcNAc(b1-3)Gal(b1-4)GlcNAc
# In short: as §1
# [14] = target: GlcNAc(a1-4)Gal(b1-4)GlcNAc(b1-3)Gal(b1-4)[Fuc(a1-3)]GlcNAc(b1-3)Gal(b1-4)[Fuc(a1-3)]GlcNAc
# In short: as §1
# [15] = target: GlcNAc(a1-6)Gal(b1-4)GlcNAc
# In short: as §1
# [16] = target: GlcNAc(b1-2)Gal(b1-3)GalNAc
# In short: as §1
# [17] = target: GlcNAc(b1-2)Man(a1-3)[GlcNAc(b1-2)Man(a1-6)]Man(b1-4)GlcNAc(b1-4)GlcNAc
# In short: as §1
# [18] = target: GlcNAc(b1-2)Man(a1-3)[GlcNAc(b1-2)Man(a1-6)]Man(b1-4)GlcNAc(b1-4)[Fuc(a1-6)]GlcNAc
# In short: as §1
# [19] = target: GlcNAc(b1-2)Man(a1-3)[GlcNAc(b1-4)][GlcNAc(b1-2)Man(a1-6)]Man(b1-4)GlcNAc(b1-4)GlcNAc
# In short: as §1
# [20] = target: GlcNAc(b1-2)Man(a1-3)[GlcNAc(b1-4)][GlcNAc(b1-2)Man(a1-6)]Man(b1-4)GlcNAc(b1-4)[Fuc(a1-6)]GlcNAc
# In short: as §1
# [21] = target: GlcNAc(b1-2)[GlcNAc(b1-4)]Man(a1-3)[GlcNAc(b1-2)Man(a1-6)]Man(b1-4)GlcNAc(b1-4)GlcNAc
# In short: as §1
# [22] = target: GlcNAc(b1-2)[GlcNAc(b1-4)]Man(a1-3)[GlcNAc(b1-4)][GlcNAc(b1-2)Man(a1-6)]Man(b1-4)GlcNAc(b1-4)GlcNAc
# In short: as §1
binder,measurement,setting,value
PX14375D-bvu-513-34-513 (Bacteroides vulgatus) (protein) TEDTFWKDETDFNLALTSCYTPLKNALNGGYYGTRGVMLRIARADEVDFRNDISDVYTVNRFTNSNTNSLTQGMFYQFYNALYRTNSIMQKLEEKKEQFSTDFQNSVKGECLFIRGFYLFQLAKEFKDAPLRLTASQSPSTFPLAKSSQADIWAQAKEDLKTAASLLPITNKIGKPTQGAAYAALGKIYVYEENWQEAINVLEPLTQNPYTYKLVEDFNWNFDDTHENNAESIFELLIEDVGGTDLWGDGENINSTQSNTRPKEYAAAEVGGWYEANPTQQIMDIFWKEKDKDGNFDYRARCSVAWDYEGCTYYQRPFREVFAQDKWKTYWILKYQNWKTQKDEPAPPKSFINERAIRYADVLLMLAEAYMNKGALDTSIGYINQIRRRANLNDYSGPITKEGVFEDLVHQRAIEFFVEGERFYDLRRWGLLEQTLKTCDDTRYKNYQTGKSDNINKFNYFPIPAKELDTNPLCTPSEGW,glycan array binding signal (z-score),[1],-0.68
same,glycan array binding signal (z-score),[2],-0.476
same,glycan array binding signal (z-score),[3],-0.958
same,glycan array binding signal (z-score),[4],-0.039
same,glycan array binding signal (z-score),[5],-0.067
same,glycan array binding signal (z-score),[6],-0.213
same,glycan array binding signal (z-score),[7],-0.611
same,glycan array binding signal (z-score),[8],-0.072
same,glycan array binding signal (z-score),[9],1.48
same,glycan array binding signal (z-score),[10],-0.103
same,glycan array binding signal (z-score),[11],0.64
same,glycan array binding signal (z-score),[12],-0.133
same,glycan array binding signal (z-score),[13],0.035
same,glycan array binding signal (z-score),[14],0.3
same,glycan array binding signal (z-score),[15],-0.303
same,glycan array binding signal (z-score),[16],0.068
same,glycan array binding signal (z-score),[17],-0.403
same,glycan array binding signal (z-score),[18],-0.688
same,glycan array binding signal (z-score),[19],-0.094
same,glycan array binding signal (z-score),[20],-0.348
same,glycan array binding signal (z-score),[21],0.443
same,glycan array binding signal (z-score),[22],-0.188

# Quoted at random: two records from the list
binder,measurement,setting,value
PX14375D-bvu-513-34-513 (Bacteroides vulgatus) (protein) TEDTFWKDETDFNLALTSCYTPLKNALNGGYYGTRGVMLRIARADEVDFRNDISDVYTVNRFTNSNTNSLTQGMFYQFYNALYRTNSIMQKLEEKKEQFSTDFQNSVKGECLFIRGFYLFQLAKEFKDAPLRLTASQSPSTFPLAKSSQADIWAQAKEDLKTAASLLPITNKIGKPTQGAAYAALGKIYVYEENWQEAINVLEPLTQNPYTYKLVEDFNWNFDDTHENNAESIFELLIEDVGGTDLWGDGENINSTQSNTRPKEYAAAEVGGWYEANPTQQIMDIFWKEKDKDGNFDYRARCSVAWDYEGCTYYQRPFREVFAQDKWKTYWILKYQNWKTQKDEPAPPKSFINERAIRYADVLLMLAEAYMNKGALDTSIGYINQIRRRANLNDYSGPITKEGVFEDLVHQRAIEFFVEGERFYDLRRWGLLEQTLKTCDDTRYKNYQTGKSDNINKFNYFPIPAKELDTNPLCTPSEGW,glycan array binding signal (z-score),[3],-0.958
same,glycan array binding signal (z-score),[5],-0.067
